This note sets out measurements from publication PMC9972622.

Assay [1] deals with T1, kinesin super-family protein 4A (KIF4A) (human (endogenous in U2OS)) (UniProt O95239).
T1 sequence: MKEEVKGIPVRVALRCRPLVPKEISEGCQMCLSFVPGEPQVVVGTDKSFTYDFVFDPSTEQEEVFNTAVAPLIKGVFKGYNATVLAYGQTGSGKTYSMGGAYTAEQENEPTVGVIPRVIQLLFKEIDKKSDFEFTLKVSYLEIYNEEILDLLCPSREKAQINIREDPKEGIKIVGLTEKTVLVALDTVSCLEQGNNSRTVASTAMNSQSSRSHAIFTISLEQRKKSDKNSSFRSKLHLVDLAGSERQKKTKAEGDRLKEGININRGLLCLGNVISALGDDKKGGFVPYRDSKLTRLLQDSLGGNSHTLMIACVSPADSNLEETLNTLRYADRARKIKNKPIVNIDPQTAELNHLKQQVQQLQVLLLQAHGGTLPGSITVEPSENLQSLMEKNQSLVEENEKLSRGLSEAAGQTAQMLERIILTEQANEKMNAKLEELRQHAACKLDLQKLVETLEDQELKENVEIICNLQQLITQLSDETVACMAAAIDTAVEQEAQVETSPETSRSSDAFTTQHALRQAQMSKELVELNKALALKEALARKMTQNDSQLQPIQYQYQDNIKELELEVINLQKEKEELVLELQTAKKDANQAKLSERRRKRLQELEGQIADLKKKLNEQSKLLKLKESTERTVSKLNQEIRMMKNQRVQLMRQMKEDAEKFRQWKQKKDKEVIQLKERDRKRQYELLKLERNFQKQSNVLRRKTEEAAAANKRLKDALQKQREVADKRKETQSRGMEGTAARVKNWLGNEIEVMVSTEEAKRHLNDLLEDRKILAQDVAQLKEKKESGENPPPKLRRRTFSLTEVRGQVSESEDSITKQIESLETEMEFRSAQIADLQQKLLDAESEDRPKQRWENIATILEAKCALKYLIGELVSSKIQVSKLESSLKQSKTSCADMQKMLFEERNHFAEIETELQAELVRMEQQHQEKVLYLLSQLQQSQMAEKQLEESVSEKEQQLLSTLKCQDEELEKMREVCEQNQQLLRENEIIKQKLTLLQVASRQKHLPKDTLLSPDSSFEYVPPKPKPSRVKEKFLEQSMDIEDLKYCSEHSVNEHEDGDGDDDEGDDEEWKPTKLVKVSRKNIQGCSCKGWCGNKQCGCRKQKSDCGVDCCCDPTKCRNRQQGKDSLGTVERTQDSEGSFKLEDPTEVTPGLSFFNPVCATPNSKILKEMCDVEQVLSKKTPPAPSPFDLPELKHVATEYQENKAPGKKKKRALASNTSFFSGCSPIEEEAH
Briefly: co-IP; U2OS cell proteins extracted in immunoprecipitation buffer, incubated with anti-DEPDC1 or anti-KIF4A overnight at 4 °C, protein A/G magnetic beads 3 h at 4 °C, western blot. Background: Immunoblotting shows a protein as a band on a membrane.

Assay [2] concerns the target T2, DEP domain 1 protein (DEPDC1) (human (endogenous in U2OS)) (UniProt Q5TB30).
T2 sequence: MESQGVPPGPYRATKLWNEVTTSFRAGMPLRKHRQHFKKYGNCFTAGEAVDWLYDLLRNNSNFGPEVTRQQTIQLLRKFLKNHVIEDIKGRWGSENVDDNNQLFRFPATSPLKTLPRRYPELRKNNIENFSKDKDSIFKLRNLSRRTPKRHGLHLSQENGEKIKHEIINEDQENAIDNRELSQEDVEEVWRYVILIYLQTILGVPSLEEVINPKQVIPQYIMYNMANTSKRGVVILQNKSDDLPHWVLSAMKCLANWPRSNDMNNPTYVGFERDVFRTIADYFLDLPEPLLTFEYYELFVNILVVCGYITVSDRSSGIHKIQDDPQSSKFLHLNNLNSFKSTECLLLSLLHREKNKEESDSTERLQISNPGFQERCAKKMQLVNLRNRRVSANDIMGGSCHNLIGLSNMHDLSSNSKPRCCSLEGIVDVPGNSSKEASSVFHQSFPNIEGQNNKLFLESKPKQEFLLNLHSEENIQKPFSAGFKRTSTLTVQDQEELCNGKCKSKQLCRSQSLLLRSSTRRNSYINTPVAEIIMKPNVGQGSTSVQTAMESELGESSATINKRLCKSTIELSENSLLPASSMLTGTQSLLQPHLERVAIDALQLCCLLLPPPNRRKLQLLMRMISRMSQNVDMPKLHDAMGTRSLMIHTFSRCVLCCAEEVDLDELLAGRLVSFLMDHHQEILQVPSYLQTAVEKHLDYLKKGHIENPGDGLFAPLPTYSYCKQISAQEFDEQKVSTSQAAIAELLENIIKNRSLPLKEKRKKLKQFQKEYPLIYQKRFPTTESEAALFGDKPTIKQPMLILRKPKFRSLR
Described as above.

No constants are given. Whether binding was seen depends on the method and setting. Binding seen in cells or lysates may run through a third protein. Some binding calls cover weakened binding; strength is not graded here.

B1: DEP domain 1 protein (DEPDC1) (protein, UniProt Q5TB30 1-811)
chain: MESQGVPPGPYRATKLWNEVTTSFRAGMPLRKHRQHFKKYGNCFTAGEAVDWLYDLLRNNSNFGPEVTRQQTIQLLRKFLKNHVIEDIKGRWGSENVDDNNQLFRFPATSPLKTLPRRYPELRKNNIENFSKDKDSIFKLRNLSRRTPKRHGLHLSQENGEKIKHEIINEDQENAIDNRELSQEDVEEVWRYVILIYLQTILGVPSLEEVINPKQVIPQYIMYNMANTSKRGVVILQNKSDDLPHWVLSAMKCLANWPRSNDMNNPTYVGFERDVFRTIADYFLDLPEPLLTFEYYELFVNILVVCGYITVSDRSSGIHKIQDDPQSSKFLHLNNLNSFKSTECLLLSLLHREKNKEESDSTERLQISNPGFQERCAKKMQLVNLRNRRVSANDIMGGSCHNLIGLSNMHDLSSNSKPRCCSLEGIVDVPGNSSKEASSVFHQSFPNIEGQNNKLFLESKPKQEFLLNLHSEENIQKPFSAGFKRTSTLTVQDQEELCNGKCKSKQLCRSQSLLLRSSTRRNSYINTPVAEIIMKPNVGQGSTSVQTAMESELGESSATINKRLCKSTIELSENSLLPASSMLTGTQSLLQPHLERVAIDALQLCCLLLPPPNRRKLQLLMRMISRMSQNVDMPKLHDAMGTRSLMIHTFSRCVLCCAEEVDLDELLAGRLVSFLMDHHQEILQVPSYLQTAVEKHLDYLKKGHIENPGDGLFAPLPTYSYCKQISAQEFDEQKVSTSQAAIAELLENIIKNRSLPLKEKRKKLKQFQKEYPLIYQKRFPTTESEAALFGDKPTIKQPMLILRKPKFRSLR
Take B1: the binding result in assay [1] is reported as “binds”.

B2: kinesin super-family protein 4A (KIF4A) (protein, UniProt O95239 1-1232)
chain: MKEEVKGIPVRVALRCRPLVPKEISEGCQMCLSFVPGEPQVVVGTDKSFTYDFVFDPSTEQEEVFNTAVAPLIKGVFKGYNATVLAYGQTGSGKTYSMGGAYTAEQENEPTVGVIPRVIQLLFKEIDKKSDFEFTLKVSYLEIYNEEILDLLCPSREKAQINIREDPKEGIKIVGLTEKTVLVALDTVSCLEQGNNSRTVASTAMNSQSSRSHAIFTISLEQRKKSDKNSSFRSKLHLVDLAGSERQKKTKAEGDRLKEGININRGLLCLGNVISALGDDKKGGFVPYRDSKLTRLLQDSLGGNSHTLMIACVSPADSNLEETLNTLRYADRARKIKNKPIVNIDPQTAELNHLKQQVQQLQVLLLQAHGGTLPGSITVEPSENLQSLMEKNQSLVEENEKLSRGLSEAAGQTAQMLERIILTEQANEKMNAKLEELRQHAACKLDLQKLVETLEDQELKENVEIICNLQQLITQLSDETVACMAAAIDTAVEQEAQVETSPETSRSSDAFTTQHALRQAQMSKELVELNKALALKEALARKMTQNDSQLQPIQYQYQDNIKELELEVINLQKEKEELVLELQTAKKDANQAKLSERRRKRLQELEGQIADLKKKLNEQSKLLKLKESTERTVSKLNQEIRMMKNQRVQLMRQMKEDAEKFRQWKQKKDKEVIQLKERDRKRQYELLKLERNFQKQSNVLRRKTEEAAAANKRLKDALQKQREVADKRKETQSRGMEGTAARVKNWLGNEIEVMVSTEEAKRHLNDLLEDRKILAQDVAQLKEKKESGENPPPKLRRRTFSLTEVRGQVSESEDSITKQIESLETEMEFRSAQIADLQQKLLDAESEDRPKQRWENIATILEAKCALKYLIGELVSSKIQVSKLESSLKQSKTSCADMQKMLFEERNHFAEIETELQAELVRMEQQHQEKVLYLLSQLQQSQMAEKQLEESVSEKEQQLLSTLKCQDEELEKMREVCEQNQQLLRENEIIKQKLTLLQVASRQKHLPKDTLLSPDSSFEYVPPKPKPSRVKEKFLEQSMDIEDLKYCSEHSVNEHEDGDGDDDEGDDEEWKPTKLVKVSRKNIQGCSCKGWCGNKQCGCRKQKSDCGVDCCCDPTKCRNRQQGKDSLGTVERTQDSEGSFKLEDPTEVTPGLSFFNPVCATPNSKILKEMCDVEQVLSKKTPPAPSPFDLPELKHVATEYQENKAPGKKKKRALASNTSFFSGCSPIEEEAH
Regarding B2, the binding result in assay [2] is “binds”.
